Laboratory results from PMC9224307.

Amino acid sequences for entries named in this document (tags omitted). A change or cut given only in a name is not applied to a line headed by its entry.
UniProt Q99757: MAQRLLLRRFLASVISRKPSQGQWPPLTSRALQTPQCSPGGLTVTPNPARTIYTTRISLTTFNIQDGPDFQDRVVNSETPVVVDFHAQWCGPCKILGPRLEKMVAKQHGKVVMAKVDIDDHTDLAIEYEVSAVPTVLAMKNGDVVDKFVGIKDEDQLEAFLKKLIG
UniProt Q15286: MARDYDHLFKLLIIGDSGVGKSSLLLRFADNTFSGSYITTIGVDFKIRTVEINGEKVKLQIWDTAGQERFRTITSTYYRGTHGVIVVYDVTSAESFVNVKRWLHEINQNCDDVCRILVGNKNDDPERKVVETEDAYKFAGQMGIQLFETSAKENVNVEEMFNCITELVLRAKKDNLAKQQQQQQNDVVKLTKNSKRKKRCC

Assays:
[1] = target: FLAG-tagged full-length (FL) TRX2 (mitochondrial thioredoxin 2) (human) (UniProt Q99757); experiment: co-IP; HCT116 co-transfected with FLAG-tagged TRX2 (full length or truncated) and HA-tagged Rab35 (full length or truncated), 72 h; IP with anti-FLAG beads, pellet analysed by WB
[2] = target: FLAG-tagged full-length (FL) TRX2 (mitochondrial thioredoxin 2) (human) (UniProt Q99757); experiment: co-IP; HCT116 or HEK293T transfected with FLAG-TRX2 or pcDNA3.1+, 72 h; lysate precleared with control IgG, anti-FLAG IP; blot for endogenous Rab35, Rab7A or Rab11B

Q: Which binding [1] does the source give for “HA-tagged Rab35 N-terminal motif (amino acids 1-92, containing the switch I and II domains) (from UniProt Q15286 1-92) (domain or fragment)” here?
A: The binding was “binds”.

Q: Which binding [1] does the source give for “HA-tagged full-length Rab35 (from UniProt Q15286 1-201)” here?
A: The binding was “binds”.

Q: With “Rab35 (endogenous) (from UniProt Q15286 1-201)” as the substance, how does the binding [2] read?
A: The binding was “binds”.

Results are given in words; binding and its absence hold for the method and conditions named. In cells and extracts the contact can be indirect. A result given as binding can be weak or reduced; the word gives no strength.
